This note sets out measurements from PMC9297786 (Molecular Oncology, 2022).

SMILES strings stand for the structures.

In this experiment the test system is K562. More on the design: MTT cell growth inhibition assay, absorbance at 490 nm. As to conditions: 48 h; inhibitor. Here is the method: Exponential‐phase cells were seeded into 96‐well plates at a density of 2 × 10^4 cells per well in complete medium. After 24 h, cells were treated with drugs at indicated concentrations and incubated for 48 h. Fresh medium containing 20 μL MTT solution (5 mg·mL^−1) was then added to each well. Then plates were incubated for another 4 h at 37 °C. After removing the medium, 150 μL DMSO was added to each well. The absorbance was recorded at 490 nm in the microplate reader and the inhibition ratio (I%) was calculated. The cell growth assay was conducted as described previously. K562 cells were cultured in IMDM containing 10% fetal bovine serum, 100 U·mL^−1 penicillin and 100 U·mL^−1 streptomycin. […] MEG‐01 cells were cultured in DMEM containing 10% fetal bovine serum, 100 U·mL^−1 penicillin and 100 U·mL^−1 streptomycin. […] Cells were grown at 37 °C in a humidified atmosphere with 5% CO2. […] To identify an EPHB4‐specific inhibitor with a potential of rapid translation into clinic, a pool of clinically approved TKIs and compounds was screened in this study (Fig. S2 and Table S4).

`CCC(=O)C(CC(C)N(C)C)(c1ccccc1)c1ccccc1` (stereo not shown) [methadone]: the “Inhibition rate (%, 10 μM)” value is recorded as -33.43%.
